In PubChem BioAssay AID624405 (Broad Institute, 2012):
Among all 1,900 compounds or so, about 250 (13%) were called active. Inconclusive results (about 4%) are left out.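 The calls were made as follows: active = fitted curve reaches 40% rescue activity at or below the top valid dose, in every test run; inconclusive = test runs disagree, some active and some inactive; inactive = every run misses the threshold or moves the wrong way.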 Only a part is listed here, and it is no random draw. Results with a measured potency or affinity are listed apart.

Assay: rescue of simvastatin-induced ATP loss – cell-based, C2C12 myotubes, ATP luminescence, cherry pick, dose response (AID 624405);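 also: myotubes are challenged with simvastatin at 10 µM to lower ATP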
Conditions: 48 h, scaled: DMSO wells 0, geranylgeraniol wells 100; at 19.5 µM (top of the series) unless noted

| SMILES | rescue activity (ATP increase) |
| --- | --- |
| COc1ccc(-c2ccc3c(c2)[C@@H]2[C@@H](CCN2C(=O)c2ccc4c(c2)OCO4)[C@@H](CO)N3)cc1 | inactive: 6.33% |
| COc1ccc(NC(=O)N(C)C[C@@H]2Oc3ccc(NC(=O)Cn4cnnn4)cc3C(=O)N([C@H](C)CO)C[C@H]2C)cc1 | inactive: 0.051% [at 21 µM] |
| Cc1cc(NC(=O)CCC(=O)N(CCC(C)C)C(C(=O)NC2CCCC2)c2cccnc2)no1 (centres undefined) | inactive: -14.7% |
| CC(=O)C[C@@H](O)CC(=O)[C@@H]1OC(=O)CCCCCCCCc2ccccc21 | inactive: 35.6% |
| C[C@@H]1CN([C@H](C)CO)C(=O)c2cc(C3=CCCCC3)cnc2O[C@H]1CN(C)C(=O)Nc1cccc(F)c1 | inactive: 27.1% |
| COc1ccc(OC)c(CNC(=O)C2CCCN(c3nc4ccccc4o3)C2)c1 (centres undefined) | inactive: 16.2% |
| Cc1noc(C)c1NC(=O)Nc1ccc2c(c1)CC(=O)N([C@H](C)CO)C[C@H](C)[C@@H](CN(C)Cc1ccc(Oc3ccccc3)cc1)O2 | inactive: -27.8% |
| Cc1cccn2c(=O)c3cc(C(=O)NCCC4=CCCCC4)n(C)c3nc12 | inactive: -167% |
| COc1ccc2oc(=O)c(-c3nnc(NCc4ccco4)s3)cc2c1 | inactive: -9.04% |
| C[C@H](CO)N1C[C@H](C)[C@@H](CN(C)Cc2ccc(-c3ccccc3)cc2)Oc2ccc(NC(=O)CCCCCC(=O)Nc3ccccc3N)cc2CC1=O | inactive: 32% |
| Oc1ccc(-c2onc3ccc(Cl)cc23)cc1 | inactive: -4.02% |
| O=C(C/C=N/OCc1c(Cl)cccc1Cl)c1cnc(-c2ccccc2)s1 | inactive: -1.61% |
| CCOC(=O)C(C)n1nc(/C=C/c2ccccc2)ccc1=O (centres undefined) | inactive: -17.3% |
| CCOC(=O)N1CCC(NC(=O)c2cc(C)c3c(C)nn(-c4ccccc4)c3n2)CC1 | inactive: -1.19% |
| COc1ccc(Cl)cc1C(=O)n1nc(C)cc1C | inactive: 0.34% |
| COc1ccc(OC)c(S(=O)(=O)NCc2cccnc2)c1 | inactive: -14.8% |
| C[C@@H]1CCCCO[C@H](CN(C)Cc2ccc(C(F)(F)F)cc2)[C@H](C)CN([C@H](C)CO)C(=O)c2cc(NC(=O)Cc3ccccc3)ccc2O1 | inactive: 7.72% |
| CCOc1ccc(N(CC(=O)NCc2ccco2)S(=O)(=O)c2ccc(OC)c(OC)c2)cc1 | inactive: 11.6% |
| CC(=O)Nc1ccc(C(=O)CSc2nc3ccc(C)cc3[nH]2)cc1 | inactive: -22.6% |
| Cc1cccn2cc(CNc3ccccc3)nc12 | inactive: 9.4% |
| c1cc(-c2noc(CC3CCCCC3)n2)ccn1 | inactive: 15.6% |
| C[C@H]1CN([C@@H](C)CO)C(=O)c2cccc(NC(=O)Nc3cccc4ccccc34)c2O[C@H]1CN(C)Cc1ccc(Cl)c(Cl)c1 | inactive: 28.7% |
| C[C@@H]1CN([C@@H](C)CO)C(=O)c2cccc(NC(=O)c3nc4ccccc4s3)c2O[C@H]1CN(C)Cc1ccc(C(=O)Nc2ccccc2N)cc1 | inactive: 14.9% |
| CS(=O)(=O)N(CC(=O)NCc1ccco1)c1ccc(OCc2ccccc2)cc1 | inactive: 23.1% |
| COc1ccc(C(=O)NC(C(=O)NCc2ccccn2)C(C)C)cc1 (centres undefined) | inactive: 36.3% |

| SMILES | rescue activity (ATP increase) |
| --- | --- |
| O=C(c1ccc(F)cc1)N1CCC(N2CCCCCC2)CC1 | inactive: -15.7% |
| O=C(COc1cc(=O)n2c(n1)SCCC2)c1ccccc1 | inactive: 36.7% |
| C[C@H](CO)N1C[C@H](C)[C@@H](CN(C)Cc2ccc3c(c2)OCO3)Oc2ccc(NS(=O)(=O)c3ccc(F)cc3)cc2CC1=O | inactive: 27.9% |
| CSc1nsc(/C=C/Nc2ccc(Cl)cc2)c1C#N | inactive: 15.3% |
| Cc1noc(C)c1S(=O)(=O)Nc1ccc2c(c1)C(=O)N([C@@H](C)CO)C[C@@H](C)[C@H](CN(C)Cc1ccc(Cl)c(Cl)c1)OCCCC[C@@H](C)O2 | inactive: 27% |
| C[C@@H]1CCCCO[C@@H](CN(C)CC2CCCCC2)[C@@H](C)CN([C@H](C)CO)C(=O)c2cc(NS(=O)(=O)c3ccccc3)ccc2O1 | inactive: -12.2% |
| CCOC(=O)C1(CCSC)NC(c2ccco2)C2C(=O)N(CC)C(=O)C21 (centres undefined) | inactive: -4.66% |
| CC(=O)c1cccc(NC(=O)CN(c2cccc(F)c2)S(C)(=O)=O)c1 | inactive: -1.17% |
| COc1ccc(C#Cc2cnc3c(c2)C(=O)N([C@H](C)CO)C[C@H](C)[C@H](CN(C)C(=O)Nc2cccc(OC)c2)O3)cc1 | inactive: 30.4% [at 21 µM] |
| COc1ccc(S(=O)(=O)Nc2ccc3c(c2)CC(=O)N([C@@H](C)CO)C[C@@H](C)[C@@H](CN(C)Cc2ccc(Cl)c(Cl)c2)O3)cc1 | inactive: 29% [at 21 µM] |
| CCOC(=O)c1nnc(-c2ccc(C)cc2)nc1Sc1ccc(Cl)cc1 | inactive: 28% |
| O=C(CN1CCN(CCOCCO)CC1)N1c2ccccc2Sc2ccc(Cl)cc21 | inactive: 29.5% |
| COc1ccc(NC(=O)Nc2cccc3c2O[C@@H](CN(C)Cc2ccc(Oc4ccccc4)cc2)[C@@H](C)CN([C@@H](C)CO)C3=O)cc1 | inactive: -0.035% |
| O=C(NCc1ccccc1)Oc1cccc(Cl)c1 | inactive: 26.1% |
| CCOc1nnc(C)c2c(C)n(-c3ccc(Cl)cc3)nc12 | inactive: 44.4% |
| N#CCCN1CCN(Cn2c3ccccc3c3ccccc32)CC1 | inactive: 2.27% |
| COc1ccc(NC(=O)Nc2ccc3c(c2)C(=O)N([C@@H](C)CO)C[C@H](C)[C@@H](CN(C)C(=O)Nc2ccc(C(F)(F)F)cc2)O3)cc1 | inactive: 18.2% |
| COc1ccc(NC(=O)CSc2nnc(-c3ccccc3Cl)n2Cc2ccco2)c(OC)c1 | inactive: 13.5% |
| Cn1nnnc1SCCOc1ccc(C#N)cc1 | inactive: -18.8% |
| Cc1ccc(OCCCn2c(CO)nc3ccccc32)cc1 | inactive: 28.8% |
| Nc1ccc2c3c(cccc13)-c1ccccc1-2 | inactive: 14.6% |
| C[C@@H]1CN([C@H](C)CO)C(=O)c2cc(NC(=O)Cc3ccccc3)ccc2O[C@@H](C)CCCCO[C@@H]1CN(C)Cc1ccc(C(F)(F)F)cc1 | inactive: -20.6% |
| CCOc1cc(C(=O)Nc2cccc3ncccc23)cc(OCC)c1OCC | inactive: -1.37% |
| C[C@H]1CN([C@@H](C)CO)C(=O)c2cc(NC(=O)Cc3ccccc3)ccc2O[C@@H]1CN(C)S(=O)(=O)c1cccs1 | inactive: 10.1% |
| COc1ccc(CN(C)C[C@@H]2Oc3ccc(NS(=O)(=O)c4ccc(C)cc4)cc3CC(=O)N([C@H](C)CO)C[C@H]2C)cc1 | inactive: 16% |

Some of these compounds in order of molar mass, largest number first.

| SMILES | rescue activity (ATP increase) |
| --- | --- |
| C[C@H](CO)N1C[C@H](C)[C@@H](CN(C)Cc2ccc3c(c2)OCO3)Oc2ccc(NS(=O)(=O)c3ccc(F)cc3)cc2CC1=O | inactive: 27.9% |
| O=C(CN1CCN(CCOCCO)CC1)N1c2ccccc2Sc2ccc(Cl)cc21 | inactive: 29.5% |
| CSc1nsc(/C=C/Nc2ccc(Cl)cc2)c1C#N | inactive: 15.3% |
| Cn1nnnc1SCCOc1ccc(C#N)cc1 | inactive: -18.8% |

More compounds:

| SMILES | rescue activity (ATP increase) |
| --- | --- |
| CC(C(=O)NCC1CCCO1)n1cccc1C(=O)c1ccccc1 (centres undefined) | inactive: 13% |
| COc1ccc(NC(=O)Nc2ccc3c(c2)C(=O)N([C@H](C)CO)C[C@@H](C)[C@H](CN(C)Cc2ccc(C(F)(F)F)cc2)OCCCC[C@@H](C)O3)cc1 | inactive: -23.2% |
| CCc1nnc(NC(=O)Cn2c(=O)oc3ccccc32)s1 | inactive: -2.91% |
| Cc1cc(S(=O)(=O)Nc2nc(CN3CCOCC3)nc3sc4c(c23)CCCC4)ccc1F | inactive: -8.27% |
| Cc1sc2nc(CN(C(=O)c3cccs3)C3CCCC3)[nH]c(=O)c2c1C | inactive: 14.6% |
| Cc1ccc(S(=O)(=O)NCC(=O)OCC(=O)c2cccs2)cc1 | inactive: -36.5% |
| CCN(CC)C(=O)c1scc2c1OCCO2 | inactive: -1.7% |
| C[C@H](CO)N1C[C@H](C)[C@@H](CN(C)S(=O)(=O)c2ccc(Cl)cc2)OCCCC[C@H](C)Oc2ccc(NS(C)(=O)=O)cc2C1=O | inactive: -2.17% |
| CCOC(=O)c1[nH]c2ccc(Br)cc2c1NC(=O)CCN1CCN(C(=O)OCC)CC1 | inactive: 45.9% |
| CCCCOC(=O)Cn1c(=O)c2c(nc3n2CCCCN3c2ccc(C)cc2)n(C)c1=O | inactive: -4.89% |
| COc1ccc(NC(=O)N(C)C[C@@H]2Oc3c(NC(=O)c4ccncc4)cccc3C(=O)N([C@H](C)CO)C[C@@H]2C)cc1 | inactive: 12.4% |
| Cc1cccc(OCCCCc2c(C)n[nH]c2C)c1C | inactive: 33.2% |
| CCC(OC(=O)c1cccs1)C(=O)NCc1ccco1 (centres undefined) | inactive: 9.03% |
| O=C(COc1cccc(Oc2ccccc2)c1)Nc1ncccn1 | inactive: 3.89% |
| CC1CCCCN1S(=O)(=O)c1ccc(NC(=O)c2ccco2)cc1 (centres undefined) | inactive: -51% |
| C[C@H]1CN([C@@H](C)CO)C(=O)Cc2cc(NC(=O)CCCCCC(=O)Nc3ccccc3N)ccc2O[C@@H]1CN(C)Cc1ccc(-c2ccccc2)cc1 | inactive: 24.2% |
| C[C@@H]1CN([C@@H](C)CO)C(=O)Cc2cc(NC(=O)Nc3cccc4ccccc34)ccc2O[C@@H]1CN(C)S(=O)(=O)c1ccc(Cl)cc1 | inactive: 8.86% |
| C[C@@H]1CCCCO[C@@H](CN(C)Cc2ccc(Cl)c(Cl)c2)[C@H](C)CN([C@@H](C)CO)C(=O)c2cc(NS(C)(=O)=O)ccc2O1 | inactive: 8.52% |
| C[C@@H]1CN([C@H](C)CO)C(=O)c2cc(NC(=O)Nc3cccc4ccccc34)ccc2O[C@@H](C)CCCCO[C@@H]1CN(C)C(=O)NC1CCCCC1 | inactive: 22% [at 21 µM] |
| CCOC(=O)c1c(C)sc2c1N(C(=O)CN(CC)CC)c1cc(Cl)ccc1S2 | inactive: 13.2% |
| Nc1nnc(-c2ccccc2)c(-c2ccccc2)n1 | inactive: 15.7% |
| COc1ccc(NC(=O)Nc2ccc3c(c2)C(=O)N([C@@H](C)CO)C[C@@H](C)[C@H](CN(C)Cc2ccc(C(F)(F)F)cc2)OCCCC[C@@H](C)O3)cc1 | inactive: -9.75% |
| COc1ccc(OCCNS(=O)(=O)c2ccc3oc4ccccc4c3c2)cc1 | inactive: 13.6% |
| COc1ccc(NC(=O)Nc2ccc3c(c2)C(=O)N([C@@H](C)CO)C[C@H](C)[C@H](CN(C)C(=O)C2CCCCC2)OCCCC[C@H](C)O3)cc1 | inactive: 12.4% |
